The supplement of paper PMC10849652
This is one part of the list.

Amino acid sequences for entries named in this document (tags omitted). A change or cut given only in a name is not applied to a line headed by its entry.
UniProt Q96AK3: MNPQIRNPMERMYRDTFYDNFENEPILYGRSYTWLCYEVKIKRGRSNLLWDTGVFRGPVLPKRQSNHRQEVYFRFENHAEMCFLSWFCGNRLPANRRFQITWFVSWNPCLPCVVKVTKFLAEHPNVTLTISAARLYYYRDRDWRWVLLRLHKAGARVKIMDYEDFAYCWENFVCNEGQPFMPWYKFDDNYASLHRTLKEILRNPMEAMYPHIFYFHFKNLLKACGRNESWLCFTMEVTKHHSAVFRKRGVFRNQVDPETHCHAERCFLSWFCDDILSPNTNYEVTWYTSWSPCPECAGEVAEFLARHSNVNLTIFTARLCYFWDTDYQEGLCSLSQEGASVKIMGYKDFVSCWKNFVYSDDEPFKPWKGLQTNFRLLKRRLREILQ
UniProt Q9NZN5: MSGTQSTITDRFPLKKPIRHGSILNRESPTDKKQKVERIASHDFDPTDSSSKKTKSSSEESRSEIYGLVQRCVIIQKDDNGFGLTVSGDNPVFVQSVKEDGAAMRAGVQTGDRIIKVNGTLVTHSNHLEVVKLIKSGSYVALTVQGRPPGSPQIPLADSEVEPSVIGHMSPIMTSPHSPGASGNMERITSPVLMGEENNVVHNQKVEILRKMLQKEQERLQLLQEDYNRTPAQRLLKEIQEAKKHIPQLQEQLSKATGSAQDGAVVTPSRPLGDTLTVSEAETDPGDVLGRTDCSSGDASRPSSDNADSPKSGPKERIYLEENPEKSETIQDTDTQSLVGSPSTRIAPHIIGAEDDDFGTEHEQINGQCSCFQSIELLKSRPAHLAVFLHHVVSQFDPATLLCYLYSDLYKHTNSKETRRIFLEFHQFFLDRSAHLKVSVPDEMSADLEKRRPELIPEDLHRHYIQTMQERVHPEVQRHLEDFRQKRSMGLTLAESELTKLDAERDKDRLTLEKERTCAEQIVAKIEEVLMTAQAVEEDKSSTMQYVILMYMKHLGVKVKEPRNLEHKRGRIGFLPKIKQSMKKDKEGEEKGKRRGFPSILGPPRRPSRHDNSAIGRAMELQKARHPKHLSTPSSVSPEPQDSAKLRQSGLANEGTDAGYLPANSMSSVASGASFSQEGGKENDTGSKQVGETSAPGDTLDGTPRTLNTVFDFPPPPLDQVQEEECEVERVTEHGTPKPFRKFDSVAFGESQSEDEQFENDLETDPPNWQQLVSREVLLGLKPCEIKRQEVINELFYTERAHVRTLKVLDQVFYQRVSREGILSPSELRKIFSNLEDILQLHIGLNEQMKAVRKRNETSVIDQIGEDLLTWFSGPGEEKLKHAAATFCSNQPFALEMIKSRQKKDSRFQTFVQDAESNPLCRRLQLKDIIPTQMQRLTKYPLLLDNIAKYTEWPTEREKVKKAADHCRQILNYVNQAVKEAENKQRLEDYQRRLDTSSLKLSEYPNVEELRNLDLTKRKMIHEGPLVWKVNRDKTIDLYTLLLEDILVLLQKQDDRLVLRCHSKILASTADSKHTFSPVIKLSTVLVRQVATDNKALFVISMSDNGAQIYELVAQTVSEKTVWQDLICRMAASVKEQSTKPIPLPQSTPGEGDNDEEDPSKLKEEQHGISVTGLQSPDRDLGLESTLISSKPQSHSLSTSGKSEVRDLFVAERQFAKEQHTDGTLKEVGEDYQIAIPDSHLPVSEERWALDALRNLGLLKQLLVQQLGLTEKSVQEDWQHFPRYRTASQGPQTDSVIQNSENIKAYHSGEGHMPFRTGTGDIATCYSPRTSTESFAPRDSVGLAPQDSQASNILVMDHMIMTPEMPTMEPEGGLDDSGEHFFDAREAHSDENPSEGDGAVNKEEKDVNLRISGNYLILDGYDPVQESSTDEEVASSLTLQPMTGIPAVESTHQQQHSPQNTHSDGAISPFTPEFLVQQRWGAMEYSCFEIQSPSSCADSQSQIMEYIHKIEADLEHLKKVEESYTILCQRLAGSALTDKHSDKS
UniProt P52566: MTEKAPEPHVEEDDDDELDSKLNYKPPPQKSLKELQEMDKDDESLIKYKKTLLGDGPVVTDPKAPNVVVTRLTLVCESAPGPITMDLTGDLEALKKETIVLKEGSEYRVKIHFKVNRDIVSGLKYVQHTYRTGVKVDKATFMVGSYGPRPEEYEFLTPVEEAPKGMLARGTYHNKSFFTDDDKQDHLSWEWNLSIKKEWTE
UniProt Q8N6T3: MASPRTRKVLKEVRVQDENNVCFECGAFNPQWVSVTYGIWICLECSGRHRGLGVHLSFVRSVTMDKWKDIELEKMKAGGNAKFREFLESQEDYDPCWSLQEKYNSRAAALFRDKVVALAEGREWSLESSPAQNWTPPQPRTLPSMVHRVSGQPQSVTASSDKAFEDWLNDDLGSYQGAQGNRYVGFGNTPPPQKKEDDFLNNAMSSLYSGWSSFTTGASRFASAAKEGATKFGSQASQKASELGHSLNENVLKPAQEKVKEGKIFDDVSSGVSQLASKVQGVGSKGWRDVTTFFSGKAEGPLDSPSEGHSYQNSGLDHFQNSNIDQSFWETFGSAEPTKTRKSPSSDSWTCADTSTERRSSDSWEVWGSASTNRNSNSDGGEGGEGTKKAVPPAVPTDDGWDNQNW
UniProt Q8NFD5, whole entry, looked up: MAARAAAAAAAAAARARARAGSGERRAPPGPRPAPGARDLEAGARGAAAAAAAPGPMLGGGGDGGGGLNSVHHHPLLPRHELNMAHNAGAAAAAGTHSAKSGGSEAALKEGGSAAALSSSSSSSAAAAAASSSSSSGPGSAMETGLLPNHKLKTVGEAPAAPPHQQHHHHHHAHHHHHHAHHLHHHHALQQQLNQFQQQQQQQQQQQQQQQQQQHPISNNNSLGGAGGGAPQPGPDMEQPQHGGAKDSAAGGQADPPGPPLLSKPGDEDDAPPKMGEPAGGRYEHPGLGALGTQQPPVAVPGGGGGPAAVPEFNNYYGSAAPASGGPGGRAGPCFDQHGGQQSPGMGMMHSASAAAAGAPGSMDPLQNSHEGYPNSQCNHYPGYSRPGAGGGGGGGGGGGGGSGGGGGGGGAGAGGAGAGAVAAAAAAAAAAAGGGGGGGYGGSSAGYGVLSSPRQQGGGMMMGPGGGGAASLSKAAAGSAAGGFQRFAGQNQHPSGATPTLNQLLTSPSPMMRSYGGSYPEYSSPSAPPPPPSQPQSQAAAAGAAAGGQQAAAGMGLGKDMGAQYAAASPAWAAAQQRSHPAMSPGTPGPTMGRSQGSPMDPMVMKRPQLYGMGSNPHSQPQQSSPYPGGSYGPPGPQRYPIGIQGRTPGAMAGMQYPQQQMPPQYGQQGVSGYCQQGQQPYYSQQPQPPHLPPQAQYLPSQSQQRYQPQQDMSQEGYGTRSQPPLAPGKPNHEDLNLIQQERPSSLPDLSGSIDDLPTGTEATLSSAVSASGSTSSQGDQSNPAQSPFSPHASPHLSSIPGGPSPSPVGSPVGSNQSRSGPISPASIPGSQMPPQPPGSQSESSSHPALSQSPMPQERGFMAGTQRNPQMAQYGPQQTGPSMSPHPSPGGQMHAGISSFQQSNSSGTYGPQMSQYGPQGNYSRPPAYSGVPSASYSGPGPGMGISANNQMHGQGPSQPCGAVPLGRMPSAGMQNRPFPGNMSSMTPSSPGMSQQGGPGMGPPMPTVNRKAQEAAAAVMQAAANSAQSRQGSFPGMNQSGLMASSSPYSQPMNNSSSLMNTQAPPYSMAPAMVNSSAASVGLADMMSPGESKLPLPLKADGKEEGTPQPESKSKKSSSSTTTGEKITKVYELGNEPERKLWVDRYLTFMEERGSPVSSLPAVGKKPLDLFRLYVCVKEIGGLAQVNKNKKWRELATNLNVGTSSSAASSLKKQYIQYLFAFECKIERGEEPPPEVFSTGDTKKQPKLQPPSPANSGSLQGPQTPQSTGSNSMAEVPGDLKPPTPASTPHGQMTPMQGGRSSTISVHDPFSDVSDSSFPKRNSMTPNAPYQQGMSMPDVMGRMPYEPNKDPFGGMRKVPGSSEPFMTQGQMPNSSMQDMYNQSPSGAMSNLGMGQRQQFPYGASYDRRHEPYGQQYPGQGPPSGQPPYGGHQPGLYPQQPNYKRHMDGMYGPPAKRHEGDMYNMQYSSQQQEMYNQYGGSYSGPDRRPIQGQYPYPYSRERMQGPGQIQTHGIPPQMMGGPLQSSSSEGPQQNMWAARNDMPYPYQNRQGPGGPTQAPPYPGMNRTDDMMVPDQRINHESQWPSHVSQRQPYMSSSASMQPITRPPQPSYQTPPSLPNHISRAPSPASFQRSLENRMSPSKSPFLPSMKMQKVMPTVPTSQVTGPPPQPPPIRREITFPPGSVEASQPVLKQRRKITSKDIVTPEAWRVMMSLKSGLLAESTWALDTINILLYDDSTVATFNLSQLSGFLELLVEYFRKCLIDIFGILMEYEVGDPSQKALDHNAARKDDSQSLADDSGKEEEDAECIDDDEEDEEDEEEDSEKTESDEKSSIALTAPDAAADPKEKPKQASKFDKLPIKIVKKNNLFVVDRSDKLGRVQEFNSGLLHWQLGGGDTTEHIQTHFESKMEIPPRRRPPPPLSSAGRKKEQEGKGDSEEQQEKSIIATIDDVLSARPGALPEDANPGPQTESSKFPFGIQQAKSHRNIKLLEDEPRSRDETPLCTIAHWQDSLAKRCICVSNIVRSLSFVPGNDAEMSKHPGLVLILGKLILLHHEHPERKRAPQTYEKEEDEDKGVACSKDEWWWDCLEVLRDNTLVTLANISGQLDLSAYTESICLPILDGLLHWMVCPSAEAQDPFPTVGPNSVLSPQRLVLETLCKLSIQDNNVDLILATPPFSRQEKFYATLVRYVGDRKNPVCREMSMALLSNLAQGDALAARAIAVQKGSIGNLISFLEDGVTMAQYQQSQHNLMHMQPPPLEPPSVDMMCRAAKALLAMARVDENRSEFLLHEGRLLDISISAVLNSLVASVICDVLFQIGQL
UniProt P27695, whole entry, looked up: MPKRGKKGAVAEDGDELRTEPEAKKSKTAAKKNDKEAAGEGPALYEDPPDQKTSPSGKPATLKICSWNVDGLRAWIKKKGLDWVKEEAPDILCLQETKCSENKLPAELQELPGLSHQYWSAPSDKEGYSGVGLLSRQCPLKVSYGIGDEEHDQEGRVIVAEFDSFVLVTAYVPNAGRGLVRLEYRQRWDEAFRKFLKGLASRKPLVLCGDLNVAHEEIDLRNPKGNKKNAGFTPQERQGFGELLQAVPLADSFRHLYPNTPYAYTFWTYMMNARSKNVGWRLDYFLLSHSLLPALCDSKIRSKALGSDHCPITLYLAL
UniProt Q92974: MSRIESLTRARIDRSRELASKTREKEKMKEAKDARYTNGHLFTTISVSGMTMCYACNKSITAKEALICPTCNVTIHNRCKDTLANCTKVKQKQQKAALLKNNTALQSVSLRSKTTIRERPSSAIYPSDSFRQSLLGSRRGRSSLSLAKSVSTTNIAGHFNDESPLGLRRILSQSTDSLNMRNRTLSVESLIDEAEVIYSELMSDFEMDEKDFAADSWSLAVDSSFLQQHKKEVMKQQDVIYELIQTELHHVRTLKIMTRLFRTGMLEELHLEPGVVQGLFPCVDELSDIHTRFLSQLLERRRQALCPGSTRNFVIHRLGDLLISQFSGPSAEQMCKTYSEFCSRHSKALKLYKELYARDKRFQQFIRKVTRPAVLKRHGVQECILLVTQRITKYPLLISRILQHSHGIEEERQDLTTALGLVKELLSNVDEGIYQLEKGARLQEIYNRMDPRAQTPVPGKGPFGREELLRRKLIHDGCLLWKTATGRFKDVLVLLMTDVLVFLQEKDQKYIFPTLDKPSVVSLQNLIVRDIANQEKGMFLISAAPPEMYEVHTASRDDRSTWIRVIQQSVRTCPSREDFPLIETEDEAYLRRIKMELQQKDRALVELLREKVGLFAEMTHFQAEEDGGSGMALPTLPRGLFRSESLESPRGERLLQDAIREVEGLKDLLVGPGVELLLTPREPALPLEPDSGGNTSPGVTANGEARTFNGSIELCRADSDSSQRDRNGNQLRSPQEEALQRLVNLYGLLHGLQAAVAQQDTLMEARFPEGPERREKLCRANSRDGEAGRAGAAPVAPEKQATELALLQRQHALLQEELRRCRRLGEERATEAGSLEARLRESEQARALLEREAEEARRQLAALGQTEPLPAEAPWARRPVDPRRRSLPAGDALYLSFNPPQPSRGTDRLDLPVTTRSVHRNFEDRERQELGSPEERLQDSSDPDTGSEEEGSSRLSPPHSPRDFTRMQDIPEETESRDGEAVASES
UniProt O75915: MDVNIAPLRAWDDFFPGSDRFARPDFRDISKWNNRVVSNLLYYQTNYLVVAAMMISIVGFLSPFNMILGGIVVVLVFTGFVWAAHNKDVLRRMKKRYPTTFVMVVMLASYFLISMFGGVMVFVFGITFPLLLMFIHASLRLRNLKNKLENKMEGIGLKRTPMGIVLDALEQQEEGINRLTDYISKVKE

How the values were obtained:
Experiment in all cases: log2 fold change, soluble protein after heating vs DMSO (PISA); higher = thermal stabilisation; K562 lysate, 10 uM; active = over 0.2 and 3.5 SD of the protein, either way, in both replicates (recomputed)
nilotinib = compound: Cc1cn(-c2cc(NC(=O)c3ccc(C)c(Nc4nccc(-c5cccnc5)n4)c3)cc(C(F)(F)F)c2)cn1 [nilotinib]
Summary of the method: (§1)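 Thermal stability, expressed as log-two fold change relative to solvent controls, is given from duplicates. Crude K562 extract in PBS pH 7.4 with 1 mM MgCl2, at 1 mg/mL protein, was treated with 10 μM compound for 30 min and heated in aliquots for 3 min across 48°C-58°C. After pooling, adjustment to 0.5% NP-40 at 4°C and centrifugation at 21,000xg for 90 min, supernatant protein was measured by TMTpro 16plex LC-MS/MS with channel sums equalised.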

[1] = compound: Cc1nc(Nc2n[nH]c3c2CN(C(=O)N[C@H](CN(C)C)c2ccccc2)C3(C)C)c2sccc2n1
Summary of the method: as §1

dasatinib = compound: Cc1nc(Nc2ncc(C(=O)Nc3c(C)cccc3Cl)s2)cc(N2CCN(CCO)CC2)n1 [dasatinib]
Summary of the method: as §1

[2] = compound: Cc1ncc(-c2ccnc(Nc3ccc(S(C)(=O)=O)cc3)n2)n1C(C)C
Summary of the method: as §1

[3] = compound: Cn1cc(-c2ccc3c(c2)CCN3C(=O)Cc2cccc(C(F)(F)F)c2)c2c(N)ncnc21
Summary of the method: as §1

quisinostat = compound: Cn1cc(CNCC2CCN(c3ncc(C(=O)NO)cn3)CC2)c2ccccc21 [quisinostat]
Summary of the method: as §1

tipifarnib = compound: Cn1cncc1[C@@](N)(c1ccc(Cl)cc1)c1ccc2c(c1)c(-c1cccc(Cl)c1)cc(=O)n2C [tipifarnib]
Summary of the method: as §1

[4] = compound: NC(=O)Nc1cc(-c2cccc(F)c2)sc1C(=O)N[C@H]1CCCNC1
Summary of the method: as §1

[5] = compound: NC(=O)c1cnc(N[C@@H]2CCCC[C@@H]2N)nc1Nc1cccc(-n2nccn2)c1
Summary of the method: as §1

[6] = compound: NC1(c2ccc(-c3nc4ccn5c(=O)[nH]nc5c4cc3-c3ccccc3)cc2)CCC1
Summary of the method: as §1

[7] = compound: NCC(=O)Nc1ccc(-n2nc(C(F)(F)F)cc2-c2ccc3c(ccc4ccccc43)c2)cc1
Summary of the method: as §1

vorinostat = compound: O=C(CCCCCCC(=O)Nc1ccccc1)NO [vorinostat]
Summary of the method: as §1

silmitasertib = compound: O=C(O)c1ccc2c(c1)nc(Nc1cccc(Cl)c1)c1ccncc12 [silmitasertib]
Summary of the method: as §1

[8] = compound: O=C1NC(=O)C(c2cnc3ccccn23)=C1c1cn2c3c(cc(F)cc13)CN(C(=O)N1CCCCC1)CC2
Summary of the method: as §1

entospletinib = compound: c1cn2cc(-c3ccc4cn[nH]c4c3)nc(Nc3ccc(N4CCOCC4)cc3)c2n1 [entospletinib]
Summary of the method: as §1

Measured: log2 fold change

APOBEC3D (UniProt Q96AK3)
inactive: nilotinib 0.018 | [1] -0.028 | dasatinib -0.121 | [2] -0.002 | [3] 0.042 | quisinostat 0.011 | tipifarnib 0.05 | [4] 0.038 | [5] 0.018 | [6] -0.052 | [7] 0.057 | vorinostat 0.053 | silmitasertib -0.071 | [8] 0.035 | entospletinib -0.011

ARPP19 (UniProt H3BMD8)
inactive: nilotinib 0.055 | [1] -0.036 | dasatinib 0.011 | [2] 0.029 | [3] -0.059 | quisinostat -0.174 | tipifarnib -0.031 | [4] -0.036 | [5] -0.078 | [6] -0.032 | [7] 0.038 | vorinostat 0.135 | silmitasertib -0.001 | [8] 0.025 | entospletinib -0.003

ARHGEF12 (UniProt Q9NZN5)
inactive: nilotinib -0.032 | [1] 0.012 | dasatinib -0.031 | [2] 0.023 | [3] 0.024 | quisinostat 0.009 | tipifarnib -0.047 | [4] -0.016 | [5] 0.03 | [6] 0.04 | [7] 0.003 | vorinostat -0.137 | silmitasertib 0.01 | [8] -0.055 | entospletinib -0.021

ARHGDIB (UniProt P52566)
inactive: nilotinib 0.015 | [1] -0.037 | dasatinib -0.061 | [2] -0.012 | [3] -0.007 | quisinostat -0.012 | tipifarnib 0.017 | [4] 0.021 | [5] 0.015 | [6] 0.008 | [7] -0.016 | vorinostat 0.096 | silmitasertib 0.002 | [8] -0.025 | entospletinib 0

ARFGAP1 (UniProt Q8N6T3)
inactive: nilotinib 0.159 | [1] 0.1 | dasatinib -0.03 | [2] -0.016 | [3] -0.043 | quisinostat -0.004 | [4] 0.063 | [5] -0.032 | [6] -0.111 | [7] 0.063 | vorinostat 0.253 | silmitasertib -0.066 | [8] -0.12 | entospletinib 0.038
active: tipifarnib -0.475

ARID1B isoform 3 (UniProt Q8NFD5)
inactive: nilotinib 0.001 | [1] -0.015 | dasatinib 0.02 | [2] -0.062 | [3] 0.032 | quisinostat 0.09 | tipifarnib -0.011 | [4] 0.041 | [5] 0.011 | [6] -0.007 | [7] -0.015 | vorinostat -0.088 | silmitasertib 0.035 | [8] 0.035 | entospletinib -0.011

APEX1 (UniProt P27695)
inactive: nilotinib 0.045 | [1] -0.037 | dasatinib 0.002 | [2] -0.027 | [3] 0.018 | quisinostat 0.016 | tipifarnib 0.001 | [4] 0.021 | [5] -0.011 | [6] -0.008 | [7] 0.007 | vorinostat -0.15 | silmitasertib 0.026 | [8] -0.001 | entospletinib -0.002

ARHGEF2 (UniProt Q92974)
active: vorinostat -0.248
inactive: nilotinib 0.014 | [1] -0.01 | dasatinib -0.01 | [2] -0.025 | [3] 0.013 | quisinostat -0.048 | tipifarnib -0.04 | [4] 0.006 | [5] -0.008 | [6] 0.013 | [7] 0.042 | silmitasertib -0.029 | [8] 0.007 | entospletinib 0

Two entries drawn at random from those above, as already listed:
ARHGEF2 (UniProt Q92974)
active: vorinostat -0.248
inactive: nilotinib 0.014 | [1] -0.01 | dasatinib -0.01 | [2] -0.025 | [3] 0.013 | quisinostat -0.048 | tipifarnib -0.04 | [4] 0.006 | [5] -0.008 | [6] 0.013 | [7] 0.042 | silmitasertib -0.029 | [8] 0.007 | entospletinib 0

APEX1 (UniProt P27695)
inactive: nilotinib 0.045 | [1] -0.037 | dasatinib 0.002 | [2] -0.027 | [3] 0.018 | quisinostat 0.016 | tipifarnib 0.001 | [4] 0.021 | [5] -0.011 | [6] -0.008 | [7] 0.007 | vorinostat -0.15 | silmitasertib 0.026 | [8] -0.001 | entospletinib -0.002

(next part)

ARL6IP5 (UniProt O75915)
inactive: nilotinib 0.015 | [1] -0.035 | dasatinib -0.047 | [2] -0.093 | [3] 0.036 | quisinostat 0.132 | tipifarnib 0.027 | [4] 0.03 | [5] -0.003 | [6] 0.038 | [7] 0.003 | vorinostat -0.01 | silmitasertib 0.044 | [8] -0.082 | entospletinib -0.017
